From the supplement of paper PMC8728848
This is one part of the list.

How the values were obtained:
Assay in all cases: glycan array binding signal (z-score within array); higher = stronger binding
Conditions in all cases: glycan notation: IUPAC condensed, linker removed
[1] = target: Fuc(a1-2)[Gal(a1-3)]Gal(b1-4)GlcNAc(b1-2)Man(a1-3)[Fuc(a1-2)[Gal(a1-3)]Gal(b1-4)GlcNAc(b1-2)Man(a1-6)]Man(b1-4)GlcNAc(b1-4)[Fuc(a1-6)]GlcNAc
Summary of the method: (§1)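 From the Consortium for Functional Glycomics database, 3228 arrays were curated, keeping only those whose protein sequence was available. Binding is given as a within-array Z-score averaged across arrays sharing a protein sequence and across linkers. Negative Z-scores can be read as non-binding.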

[2] = target: Fuc(a1-2)[Gal(a1-3)]Gal(b1-4)GlcNAc(b1-3)GalNAc
Summary of the method: as §1

[3] = target: Fuc(a1-2)[Gal(a1-3)]Gal(b1-4)GlcNAc(b1-3)[Fuc(a1-2)[Gal(a1-3)]Gal(b1-4)GlcNAc(b1-6)]GalNAc
Summary of the method: as §1

[4] = target: Fuc(a1-2)[Gal(a1-3)]Gal(b1-4)GlcNAc(b1-6)GalNAc
Summary of the method: as §1

[5] = target: Fuc(a1-2)[Gal(a1-3)]Gal(b1-4)[Fuc(a1-3)]Glc
Summary of the method: as §1

[6] = target: Fuc(a1-2)[Gal(a1-3)]Gal(b1-4)[Fuc(a1-3)]GlcNAc
Summary of the method: as §1

[7] = target: Fuc(a1-2)[Gal(a1-3)]Gal(b1-4)[Fuc(a1-3)]GlcNAc(b1-3)GalNAc
Summary of the method: as §1

[8] = target: Fuc(a1-2)[Gal(a1-4)]Gal(b1-4)GlcNAc
Summary of the method: as §1

[9] = target: Fuc(a1-2)[GalNAc(a1-3)]Gal
Summary of the method: as §1

[10] = target: Fuc(a1-2)[GalNAc(a1-3)]Gal(b1-3)GalNAc(a1-3)[Fuc(a1-2)]Gal(b1-4)GlcNAc
Summary of the method: as §1

[11] = target: Fuc(a1-2)[GalNAc(a1-3)]Gal(b1-3)GalNAc(b1-3)Gal(a1-4)Gal(b1-4)Glc
Summary of the method: as §1

[12] = target: Fuc(a1-2)[GalNAc(a1-3)]Gal(b1-3)GlcNAc
Summary of the method: as §1

[13] = target: Fuc(a1-2)[GalNAc(a1-3)]Gal(b1-3)GlcNAc(b1-2)Man(a1-3)[Fuc(a1-2)[GalNAc(a1-3)]Gal(b1-3)GlcNAc(b1-2)Man(a1-6)]Man(b1-4)GlcNAc(b1-4)GlcNAc
Summary of the method: as §1

[14] = target: Fuc(a1-2)[GalNAc(a1-3)]Gal(b1-3)GlcNAc(b1-2)Man(a1-3)[Fuc(a1-2)[GalNAc(a1-3)]Gal(b1-3)GlcNAc(b1-2)Man(a1-6)]Man(b1-4)GlcNAc(b1-4)[Fuc(a1-6)]GlcNAc
Summary of the method: as §1

[15] = target: Fuc(a1-2)[GalNAc(a1-3)]Gal(b1-3)GlcNAc(b1-3)GalNAc
Summary of the method: as §1

[16] = target: Fuc(a1-2)[GalNAc(a1-3)]Gal(b1-3)GlcNAc(b1-6)GalNAc
Summary of the method: as §1

[17] = target: Fuc(a1-2)[GalNAc(a1-3)]Gal(b1-4)Glc
Summary of the method: as §1

[18] = target: Fuc(a1-2)[GalNAc(a1-3)]Gal(b1-4)GlcNAc
Summary of the method: as §1

[19] = target: Fuc(a1-2)[GalNAc(a1-3)]Gal(b1-4)GlcNAc(b1-2)Man
Summary of the method: as §1

[20] = target: Fuc(a1-2)[GalNAc(a1-3)]Gal(b1-4)GlcNAc(b1-2)Man(a1-3)[Fuc(a1-2)[GalNAc(a1-3)]Gal(b1-4)GlcNAc(b1-2)Man(a1-6)]Man(b1-4)GlcNAc(b1-4)GlcNAc
Summary of the method: as §1

[21] = target: Fuc(a1-2)[GalNAc(a1-3)]Gal(b1-4)GlcNAc(b1-2)Man(a1-3)[Fuc(a1-2)[GalNAc(a1-3)]Gal(b1-4)GlcNAc(b1-2)Man(a1-6)]Man(b1-4)GlcNAc(b1-4)[Fuc(a1-6)]GlcNAc
Summary of the method: as §1

[22] = target: Fuc(a1-2)[GalNAc(a1-3)]Gal(b1-4)GlcNAc(b1-3)Gal(b1-4)GlcNAc
Summary of the method: as §1

[23] = target: Fuc(a1-2)[GalNAc(a1-3)]Gal(b1-4)GlcNAc(b1-3)Gal(b1-4)GlcNAc(b1-3)Gal(b1-4)GlcNAc
Summary of the method: as §1

[24] = target: Fuc(a1-2)[GalNAc(a1-3)]Gal(b1-4)GlcNAc(b1-3)GalNAc
Summary of the method: as §1

[25] = target: Fuc(a1-2)[GalNAc(a1-3)]Gal(b1-4)GlcNAc(b1-3)[Fuc(a1-2)[GalNAc(a1-3)]Gal(b1-4)GlcNAc(b1-6)]GalNAc
Summary of the method: as §1

[26] = target: Fuc(a1-2)[GalNAc(a1-3)]Gal(b1-4)GlcNAc(b1-6)GalNAc
Summary of the method: as §1

[27] = target: Fuc(a1-2)[GalNAc(a1-3)]Gal(b1-4)[Fuc(a1-3)]GlcNAc
Summary of the method: as §1

[28] = target: Fuc(a1-2)[GalNAc(a1-3)]Gal(b1-4)[Fuc(a1-3)]GlcNAc(b1-3)GalNAc
Summary of the method: as §1

[29] = target: Fuc(a1-2)[GalNAc(a1-4)]Gal(b1-4)GlcNAc
Summary of the method: as §1

[30] = target: Fuc(a1-2)[GalNAc(b1-3)]Gal
Summary of the method: as §1

[31] = target: Fuc(a1-3)GlcNAc
Summary of the method: as §1

[32] = target: Fuc(a1-3)[Gal(b1-4)]Glc6S
Summary of the method: as §1

[33] = target: Fuc(a1-3)[Gal(b1-4)]GlcNAc
Summary of the method: as §1

[34] = target: Fuc(a1-3)[Gal(b1-4)]GlcNAc(b1-2)Man
Summary of the method: as §1

[35] = target: Fuc(a1-3)[Gal(b1-4)]GlcNAc(b1-2)Man(a1-3)[Fuc(a1-3)[Gal(b1-4)]GlcNAc(b1-2)Man(a1-6)]Man(b1-4)GlcNAc(b1-4)GlcNAc
Summary of the method: as §1

[36] = target: Fuc(a1-3)[Gal(b1-4)]GlcNAc(b1-2)Man(a1-3)[Fuc(a1-3)[Gal(b1-4)]GlcNAc(b1-2)Man(a1-6)]Man(b1-4)GlcNAc(b1-4)[Fuc(a1-6)]GlcNAc
Summary of the method: as §1

[37] = target: Fuc(a1-3)[Gal(b1-4)]GlcNAc(b1-3)Gal(b1-3)[Fuc(a1-4)]GlcNAc
Summary of the method: as §1

[38] = target: Fuc(a1-3)[Gal(b1-4)]GlcNAc(b1-3)Gal(b1-4)[Fuc(a1-3)]GlcNAc
Summary of the method: as §1

[39] = target: Fuc(a1-3)[Gal(b1-4)]GlcNAc(b1-3)Gal(b1-4)[Fuc(a1-3)]GlcNAc(b1-3)Gal(b1-4)[Fuc(a1-3)]GlcNAc
Summary of the method: as §1

[40] = target: Fuc(a1-3)[Gal(b1-4)]GlcNAc(b1-3)GalNAc
Summary of the method: as §1

[41] = target: Fuc(a1-3)[Gal(b1-4)]GlcNAc(b1-6)GalNAc
Summary of the method: as §1

[42] = target: Fuc(a1-3)[Gal(b1-4)]GlcNAc(b1-6)[Gal(b1-3)GlcNAc(b1-3)]Gal(b1-4)Glc
Summary of the method: as §1

[43] = target: Fuc(a1-3)[Gal(b1-4)]GlcNAc6S
Summary of the method: as §1

[44] = target: Fuc(a1-3)[Gal3S(b1-4)]Glc
Summary of the method: as §1

[45] = target: Fuc(a1-3)[Gal3S(b1-4)]GlcNAc
Summary of the method: as §1

[46] = target: Fuc(a1-3)[Gal3S(b1-4)]GlcNAc6S
Summary of the method: as §1

[47] = target: Fuc(a1-3)[GalNAc(b1-4)]GlcNAc
Summary of the method: as §1

[48] = target: Fuc(a1-3)[GalNAc(b1-4)]GlcNAc6S
Summary of the method: as §1

[49] = target: Fuc(a1-4)GlcNAc
Summary of the method: as §1

[50] = target: Fuc(b1-3)GlcNAc
Summary of the method: as §1

[51] = target: Gal(a1-2)Gal
Summary of the method: as §1

[52] = target: Gal(a1-3)Gal
Summary of the method: as §1

[53] = target: Gal(a1-3)Gal(b1-3)GlcNAc
Summary of the method: as §1

[54] = target: Gal(a1-3)Gal(b1-3)GlcNAc(b1-2)Man
Summary of the method: as §1

[55] = target: Gal(a1-3)Gal(b1-3)GlcNAc(b1-2)Man(a1-3)[Gal(a1-3)Gal(b1-3)GlcNAc(b1-2)Man(a1-6)]Man(b1-4)GlcNAc(b1-4)GlcNAc
Summary of the method: as §1

[56] = target: Gal(a1-3)Gal(b1-3)GlcNAc(b1-3)GalNAc
Summary of the method: as §1

[57] = target: Gal(a1-3)Gal(b1-3)GlcNAc(b1-6)GalNAc
Summary of the method: as §1

[58] = target: Gal(a1-3)Gal(b1-3)[Fuc(a1-4)]GlcNAc(b1-2)Man(a1-3)[Gal(a1-3)Gal(b1-3)[Fuc(a1-4)]GlcNAc(b1-2)Man(a1-6)]Man(b1-4)GlcNAc(b1-4)GlcNAc
Summary of the method: as §1

[59] = target: Gal(a1-3)Gal(b1-4)Glc
Summary of the method: as §1

[60] = target: Gal(a1-3)Gal(b1-4)GlcNAc
Summary of the method: as §1

B1: EULS2 M3 (Oryza sativa) (protein)
chain: MVYCRANPNYAMTARNGAVVLAPANPKDEYQHWIKDMRWSTSIKDEEGYPAFALVNKATGQAIKHSLGQSHPVRLVPYNPEVMDESVLWTESRDVGNGFRCIRMVNNIYLNFDAFHGDKYHGGVRDGTDIVLWKLCEGDSLRWKIQPYYILEQKLISEEDLNSAVDHHHHHH
glycan array binding signal (z-score) [1]: 0.379 | glycan array binding signal (z-score) [2]: -0.052 | glycan array binding signal (z-score) [3]: -0.405 | glycan array binding signal (z-score) [4]: 0.239 | glycan array binding signal (z-score) [5]: -0.023 | glycan array binding signal (z-score) [6]: -0.583 | glycan array binding signal (z-score) [7]: -0.588 | glycan array binding signal (z-score) [8]: -0.433 | glycan array binding signal (z-score) [9]: -0.208 | glycan array binding signal (z-score) [10]: -0.015 | glycan array binding signal (z-score) [11]: -0.13 | glycan array binding signal (z-score) [12]: -0.258 | glycan array binding signal (z-score) [13]: -0.917 | glycan array binding signal (z-score) [14]: 0.23 | glycan array binding signal (z-score) [15]: -0.473 | glycan array binding signal (z-score) [16]: 0.365 | glycan array binding signal (z-score) [17]: -0.973 | glycan array binding signal (z-score) [18]: 1.11 | glycan array binding signal (z-score) [19]: -0.219 | glycan array binding signal (z-score) [20]: 0.667 | glycan array binding signal (z-score) [21]: 0.517 | glycan array binding signal (z-score) [22]: 0.052 | glycan array binding signal (z-score) [23]: -0.022 | glycan array binding signal (z-score) [24]: -0.541 | glycan array binding signal (z-score) [25]: 1.36 | glycan array binding signal (z-score) [26]: -0.777 | glycan array binding signal (z-score) [27]: -0.388 | glycan array binding signal (z-score) [28]: -0.133 | glycan array binding signal (z-score) [29]: -0.103 | glycan array binding signal (z-score) [30]: -0.109 | glycan array binding signal (z-score) [31]: -0.381 | glycan array binding signal (z-score) [32]: 0.022 | glycan array binding signal (z-score) [33]: -0.464 | glycan array binding signal (z-score) [34]: 0.127 | glycan array binding signal (z-score) [35]: -1.13 | glycan array binding signal (z-score) [36]: -0.206 | glycan array binding signal (z-score) [37]: 0.037 | glycan array binding signal (z-score) [38]: 0.312 | glycan array binding signal (z-score) [39]: 0.451 | glycan array binding signal (z-score) [40]: -0.575 | glycan array binding signal (z-score) [41]: -0.383 | glycan array binding signal (z-score) [42]: -0.086 | glycan array binding signal (z-score) [43]: -0.919 | glycan array binding signal (z-score) [44]: 0.485 | glycan array binding signal (z-score) [45]: -0.179 | glycan array binding signal (z-score) [46]: -0.196 | glycan array binding signal (z-score) [47]: 0.017 | glycan array binding signal (z-score) [48]: -0.95 | glycan array binding signal (z-score) [49]: -0.052 | glycan array binding signal (z-score) [50]: -0.316 | glycan array binding signal (z-score) [51]: -0.03 | glycan array binding signal (z-score) [52]: 0.277 | glycan array binding signal (z-score) [53]: 8.25 | glycan array binding signal (z-score) [54]: -0.512 | glycan array binding signal (z-score) [55]: -0.1 | glycan array binding signal (z-score) [56]: -0.388 | glycan array binding signal (z-score) [57]: -0.479 | glycan array binding signal (z-score) [58]: 0.332 | glycan array binding signal (z-score) [59]: 0.227 | glycan array binding signal (z-score) [60]: 0.181
